From PubChem BioAssay AID445 (National Center for Advancing Translational Sciences (NCATS), 2006) come the findings set out here.

The other results are listed elsewhere or left out. Further columns of the screen follow, without active or inactive calls. The list favours compounds with an active or inconclusive main result. Words in brackets tell the shape of the fitted curve; partial curves, single points and poor fits give uncertain potencies.

The nature of this assay: IkB Signaling. Particulars: ABC-DLBCL IkBa-CBG/CBR dual luciferase ratio (green luciferase fused to IkBa over red control in OCI-Ly3 lymphoma cells), 4 h. The method in brief:
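In this assay, an IκBα–CBG68 fusion accumulates when IKK-driven degradation is blocked; native CBR normalizes for cell number. OCI-Ly3 cells were treated 4 h with compound and doxycycline, then green and red light read after Chroma-Glo addition.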

Where [1] appears, read: measured here: control luc red channel unless noted.

As for `COc1ccc(OC)c(NC(=O)Cc2coc3ccc(C(C)C)cc23)c1`, under setting [1], the AC50 was 20 µM [falling, single point].

With `O=C(O)c1cccc(COc2ccccc2Cl)c1`, the concentration at half-maximal activity (AC50) under setting [1] is 2.51 µM [falling, full curve].

For `CCOC(=O)c1c(-c2ccccc2)oc2ccc(N(C(C)=O)S(=O)(=O)c3cc(C)ccc3C)cc12`, under setting [1], the AC50 is 3.16 µM [falling, partial curve, poor fit].

Consider `Cc1ccc(O)c(C(CC(=O)NCC2(c3ccccc3)CCCC2)c2ccccc2)c1` (stereo not drawn), for which the AC50 under setting [1] was 7.94 µM [falling, partial curve].

Regarding `CCc1c(C)nc(SCC(=O)N2CCN(c3ccccc3OC)CC2)[nH]c1=O`, the AC50 under setting [1] was 12.6 µM [falling, partial curve].

For the compound `COc1ccc(OC)c(NC(=O)c2cc3c(=O)oc4ccccc4c3s2)c1`, the half-maximal activity concentration (AC50) under setting [1] is 3.16 µM [falling, partial curve].

Turning to `CCN(CC)c1nn2c(=O)c(C(=O)NCCc3ccccc3)cnc2s1`, the AC50 under setting [1] was 3.98 µM [rising, partial curve].

Take `Cc1ccc(C)c(NC(=O)c2ccc3c(O)c(S(=O)(=O)c4ccc(Cl)cc4)c(=O)[nH]c3c2)c1`: under setting [1], the AC50 was 15.8 µM [falling, partial curve].

In the case of `O=C(NCC(c1cccnc1)N1CCN(c2ccccc2F)CC1)c1cccc(Cl)c1` (stereo not drawn), the AC50 under setting [1] was 15.8 µM [falling, partial curve].

Regarding `Cn1cc(Cl)c(-c2nc3ccccc3[nH]2)n1`, the AC50 under setting [1] was 12.6 µM [falling, partial curve].

As for `CCOc1ccc(-c2nonc2NC(=O)c2oc3cc(C)ccc3c2C)cc1`, the AC50 under setting [1] was 3.98 µM [falling, full curve].

As for `Fc1ccc(-c2noc3ncnc(N4CCN(c5ccccc5)CC4)c23)cc1`, under setting [1], the AC50 was 3.16 µM [falling, single point].

Turning to `O=C(NCc1ccc(F)cc1)c1ccc2c(Cl)c3c(nc2c1)CCCC3`, the half-maximal activity concentration (AC50) under setting [1] is 10 µM [falling, partial curve].

Turning to `CCOc1ccc(NC(=O)Cn2c(=O)n(-c3cccc(Cl)c3)c(=O)c3c2c2cc(C)ccc2n3C)cc1`, the AC50 under setting [1] is 5.01 µM [falling, partial curve].

In the case of `COc1ccc(S(=O)(=O)Nc2cccc(-c3ccc(N4CCC(C)CC4)nn3)c2)c(OC)c1`, the AC50 under setting [1] is 2.51 µM [falling, full curve].

As to `COc1cc(NC(=O)c2ccc3oc(=O)c(S(=O)(=O)c4ccccc4)cc3c2)cc(OC)c1`, the AC50 runs as follows: (measured here: IkB-luc green channel) 6.31 µM [rising, single point]; (measured here: control luc red channel) 10 µM [falling, partial curve].

With `CCOc1cccc(C2c3[nH]c4ccccc4c3CCN2C(=O)CSc2ccccc2)c1` (stereo not drawn), the AC50 under setting [1] is 2.51 µM [falling, full curve].
